Assay results as given in PubChem BioAssay AID488835 (Broad Institute, 2010).
Out of some 1,400 compounds screened, about 140 (10%) were called active. Inconclusive means that the source gave no clear call. Such entries were picked first, then a sample of the others.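 How the source made its calls: active means Half-maximal inhibitory dose from the fit at or below ten times the top valid tested dose; inconclusive means Invalid fit, or flat curve showing 30 to 70% inhibition; inactive means the rest.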

Amino acid sequences for entries named in this document (tags omitted). Residues count along the entry.
UniProt Q9H3R0, 1-420 limits assumed: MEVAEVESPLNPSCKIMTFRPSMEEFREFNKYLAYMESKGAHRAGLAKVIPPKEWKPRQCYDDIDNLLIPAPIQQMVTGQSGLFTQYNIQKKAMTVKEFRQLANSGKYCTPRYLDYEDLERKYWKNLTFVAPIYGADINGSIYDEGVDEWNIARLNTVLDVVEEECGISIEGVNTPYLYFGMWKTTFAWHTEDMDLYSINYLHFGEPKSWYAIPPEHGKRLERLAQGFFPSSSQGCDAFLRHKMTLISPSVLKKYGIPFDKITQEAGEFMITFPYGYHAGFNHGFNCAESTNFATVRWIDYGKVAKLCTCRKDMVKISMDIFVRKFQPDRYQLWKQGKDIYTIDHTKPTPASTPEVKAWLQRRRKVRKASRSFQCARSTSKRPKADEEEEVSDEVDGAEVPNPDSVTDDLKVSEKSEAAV

The compounds below were run against Lysine-specific demethylase 4C (Homo sapiens) (UniProt Q9H3R0) (assay: inhibition of JMJD2C H3K9me3 demethylation – biochemical, DELFIA europium, cherry-picked samples, dose response (AID 488835;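 further: signal is the H3K9me2 demethylation product detected by a dimethyl-specific antibody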)). Conditions: GST-JMJD2C(1-420); at 6 µM (top of the series).

Q: How did the activity change, negative = inhibition turn out when `COc1ccc(/C=C/C(=O)OCC(=O)c2ccc[nH]2)cc1` was run?
A: inconclusive: -12.3%

Q: How did the activity change, negative = inhibition turn out when `O=C(Nc1ccc(Cl)c(C(F)(F)F)c1)NC1CC2CCCC(C1)N2Cc1ccccc1` (stereo unspecified) was run?
A: inconclusive: -13.9%

Q: For `Cc1ccc(S(=O)(=O)N2[C@@H](c3ccc(Br)cc3)C(C(=O)O)=CC[C@H]2c2cccc(Cl)c2)cc1`, which activity change, negative = inhibition is on record?
A: inconclusive: 9.39%

Q: For `COc1ccccc1-n1c(SCC(=O)N2CCCC2)nc2cccnc21`, which activity change, negative = inhibition is on record?
A: inactive: 2.93%

Q: How did the activity change, negative = inhibition turn out when `O=C(O)Cc1ccc2oc(-c3cccnc3)nc2c1` was run?
A: inconclusive: -16.4%

Q: Which activity change, negative = inhibition does the source give for `O=C(O)c1cc(O)c2c(c1)[C@@H]([C@H]1c3cc(C(=O)O)cc(O)c3C(=O)c3c(O[C@@H]4O[C@H](CO)[C@@H](O)[C@H](O)[C@H]4O)cccc31)c1cccc(O[C@@H]3O[C@H](CO)[C@@H](O)[C@H](O)[C@H]3O)c1C2=O` here?
A: inconclusive: -102%
